According to patent publication US20240139188A1, “Arylamide Compounds For Treatment And Prevention Of Fungal Infections” (priority 2022, published 2024):
Some of these results come from one statement about several compounds together.

Tested on: A. fumigatus
Assay: Alamar blue metabolic activity assay
Type: cell-based, Aspergillus fumigatus
Conditions: compound 20 μM alone and 0.6 to 20 μM plus CAS 0.2 μg/ml, 48 hours

Row | Structure (SMILES) | classification as enhancer or synergizer of CAS (metabolic activity, Alamar blue)
1 | NCC(=O)Nc1ccc(-n2nc(C(F)(F)F)cc2-c2ccc3c(ccc4ccccc43)c2)cc1 [OSU 03012] | synergizers (compounds which alone inhibited less than 30% of the fungal metabolic activity but in combination with CAS inhibited more than 30%)
2 | CN(C)CCOc1ccc(/C(=C(/CCCl)c2ccccc2)c2ccccc2)cc1 [toremifene] | synergizers (compounds which alone inhibited less than 30% of the fungal metabolic activity but in combination with CAS inhibited more than 30%)
